# Assay results reported in the M2OR odorant receptor database.
# The list shows a part of the results, in another mix than the full data. Calls are pooled over several reports, among them a noisy single-well screen. This is one part of the list.
# How the values were obtained:
# Settings in all cases: stereoisomer not certain
# [1] = target: T1, OR10C1 (Homo sapiens) (UniProt Q96KK4)
# T1 sequence (whole entry): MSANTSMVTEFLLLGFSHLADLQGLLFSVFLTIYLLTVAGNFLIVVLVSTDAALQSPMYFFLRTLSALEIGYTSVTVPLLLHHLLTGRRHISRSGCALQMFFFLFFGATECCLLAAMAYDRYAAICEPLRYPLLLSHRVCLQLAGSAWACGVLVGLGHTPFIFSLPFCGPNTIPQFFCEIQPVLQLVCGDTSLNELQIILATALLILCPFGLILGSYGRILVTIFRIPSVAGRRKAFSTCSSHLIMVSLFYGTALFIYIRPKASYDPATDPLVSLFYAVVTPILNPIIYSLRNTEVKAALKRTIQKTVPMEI
# Procedure, shortened: (§1)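 Transient luciferase assays in mammalian cell lines were common, though methods varied by source. The values come from published papers and their supplementary material, with extra details from the original authors when needed. Responsive refers to a measured signal the original authors judged statistically different from baseline, and non-responsive (inactive) to the remainder.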
# [2] = target: T2, OR10G6 (Homo sapiens) (UniProt Q8NH81)
# T2 sequence (whole entry): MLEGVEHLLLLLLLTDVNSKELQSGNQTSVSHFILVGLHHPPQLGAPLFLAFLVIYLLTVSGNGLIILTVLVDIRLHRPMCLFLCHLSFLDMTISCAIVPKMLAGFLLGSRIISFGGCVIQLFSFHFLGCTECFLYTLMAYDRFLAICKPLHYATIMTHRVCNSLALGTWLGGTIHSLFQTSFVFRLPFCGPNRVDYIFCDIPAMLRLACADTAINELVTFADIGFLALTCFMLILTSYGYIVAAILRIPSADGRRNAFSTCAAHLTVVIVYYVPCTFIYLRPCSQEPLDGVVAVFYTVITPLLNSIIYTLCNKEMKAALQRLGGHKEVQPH
# Procedure, shortened: as §1
# [3] = target: T3, OR10G7 (Homo sapiens) (UniProt Q8NGN6)
# T3 sequence (whole entry): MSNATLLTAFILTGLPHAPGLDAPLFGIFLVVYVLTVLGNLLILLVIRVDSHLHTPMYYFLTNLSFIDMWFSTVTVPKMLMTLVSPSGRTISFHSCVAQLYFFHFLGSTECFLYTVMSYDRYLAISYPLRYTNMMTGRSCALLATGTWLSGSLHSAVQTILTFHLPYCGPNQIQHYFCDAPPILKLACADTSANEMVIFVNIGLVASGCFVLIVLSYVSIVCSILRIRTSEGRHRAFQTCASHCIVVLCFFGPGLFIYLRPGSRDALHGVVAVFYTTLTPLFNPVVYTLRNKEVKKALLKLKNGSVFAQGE
# Procedure, shortened: as §1
# [4] = target: T4, OR10G8 (Homo sapiens) (UniProt Q8NGN5)
# T4 sequence (whole entry): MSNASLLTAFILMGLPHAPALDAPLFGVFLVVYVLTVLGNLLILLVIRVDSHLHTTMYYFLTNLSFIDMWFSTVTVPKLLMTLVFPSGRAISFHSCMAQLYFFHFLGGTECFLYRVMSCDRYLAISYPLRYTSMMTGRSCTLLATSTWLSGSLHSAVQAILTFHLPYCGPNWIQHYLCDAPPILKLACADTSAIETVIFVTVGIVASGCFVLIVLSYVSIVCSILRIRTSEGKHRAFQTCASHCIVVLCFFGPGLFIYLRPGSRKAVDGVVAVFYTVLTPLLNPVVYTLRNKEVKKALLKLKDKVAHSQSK
# Procedure, shortened: as §1
# [5] = target: T5, OR10H1 (Homo sapiens) (UniProt Q9Y4A9)
# T5 sequence (whole entry): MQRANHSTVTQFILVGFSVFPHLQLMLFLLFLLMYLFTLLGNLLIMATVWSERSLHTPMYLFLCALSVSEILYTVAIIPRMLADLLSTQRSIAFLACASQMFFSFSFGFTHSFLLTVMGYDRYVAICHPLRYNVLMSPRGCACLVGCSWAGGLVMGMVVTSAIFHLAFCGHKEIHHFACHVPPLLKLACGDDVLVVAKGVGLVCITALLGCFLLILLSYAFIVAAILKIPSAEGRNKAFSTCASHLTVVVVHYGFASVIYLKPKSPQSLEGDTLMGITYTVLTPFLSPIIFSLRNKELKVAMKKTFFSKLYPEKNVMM
# Procedure, shortened: as §1
# [6] = target: T6, OR10H3 (Homo sapiens) (UniProt O60404)
# T6 sequence (whole entry): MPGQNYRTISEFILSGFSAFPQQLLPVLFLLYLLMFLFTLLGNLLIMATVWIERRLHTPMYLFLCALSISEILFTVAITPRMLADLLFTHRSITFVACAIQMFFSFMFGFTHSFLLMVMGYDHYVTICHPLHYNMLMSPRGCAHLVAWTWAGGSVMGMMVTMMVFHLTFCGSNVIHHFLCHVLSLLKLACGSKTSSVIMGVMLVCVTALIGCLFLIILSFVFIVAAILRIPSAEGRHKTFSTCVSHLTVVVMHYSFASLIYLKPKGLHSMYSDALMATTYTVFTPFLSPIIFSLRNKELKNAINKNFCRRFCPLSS
# Procedure, shortened: as §1
# [7] = target: T7, OR10H4 (Homo sapiens) (UniProt Q8NGA5)
# T7 sequence (whole entry): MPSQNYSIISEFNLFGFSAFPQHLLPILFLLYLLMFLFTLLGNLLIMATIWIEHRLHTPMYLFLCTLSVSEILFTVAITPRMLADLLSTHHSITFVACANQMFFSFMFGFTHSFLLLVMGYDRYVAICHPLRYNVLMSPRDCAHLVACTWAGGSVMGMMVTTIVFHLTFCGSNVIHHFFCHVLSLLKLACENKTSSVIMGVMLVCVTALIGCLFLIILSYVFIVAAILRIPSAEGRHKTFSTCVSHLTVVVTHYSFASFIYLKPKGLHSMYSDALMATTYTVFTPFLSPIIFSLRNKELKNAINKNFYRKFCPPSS
# Procedure, shortened: as §1
# [8] = target: T8, OR10J5 (Homo sapiens) (UniProt Q8NHC4)
# T8 sequence (whole entry): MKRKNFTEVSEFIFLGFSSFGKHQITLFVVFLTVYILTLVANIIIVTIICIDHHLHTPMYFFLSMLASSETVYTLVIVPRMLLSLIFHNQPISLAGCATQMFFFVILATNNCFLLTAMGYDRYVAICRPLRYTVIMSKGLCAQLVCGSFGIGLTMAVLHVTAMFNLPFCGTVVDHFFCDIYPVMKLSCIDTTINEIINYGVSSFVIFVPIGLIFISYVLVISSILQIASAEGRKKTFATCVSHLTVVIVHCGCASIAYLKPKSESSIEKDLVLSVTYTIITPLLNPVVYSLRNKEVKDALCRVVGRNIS
# Procedure, shortened: as §1
# [9] = target: T9, OR10K1 (Homo sapiens) (UniProt Q8NGX5)
# T9 sequence (whole entry): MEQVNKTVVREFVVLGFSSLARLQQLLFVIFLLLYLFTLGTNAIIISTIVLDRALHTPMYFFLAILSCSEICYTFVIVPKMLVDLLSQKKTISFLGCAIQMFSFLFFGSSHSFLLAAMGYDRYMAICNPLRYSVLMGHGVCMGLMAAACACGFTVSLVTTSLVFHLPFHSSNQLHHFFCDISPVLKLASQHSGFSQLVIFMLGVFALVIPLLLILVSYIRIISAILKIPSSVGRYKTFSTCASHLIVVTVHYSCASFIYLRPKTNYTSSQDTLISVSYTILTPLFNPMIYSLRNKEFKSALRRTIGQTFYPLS
# Procedure, shortened: as §1
# [10] = target: T10, OR10K2 (Homo sapiens) (UniProt Q6IF99)
# T10 sequence (whole entry): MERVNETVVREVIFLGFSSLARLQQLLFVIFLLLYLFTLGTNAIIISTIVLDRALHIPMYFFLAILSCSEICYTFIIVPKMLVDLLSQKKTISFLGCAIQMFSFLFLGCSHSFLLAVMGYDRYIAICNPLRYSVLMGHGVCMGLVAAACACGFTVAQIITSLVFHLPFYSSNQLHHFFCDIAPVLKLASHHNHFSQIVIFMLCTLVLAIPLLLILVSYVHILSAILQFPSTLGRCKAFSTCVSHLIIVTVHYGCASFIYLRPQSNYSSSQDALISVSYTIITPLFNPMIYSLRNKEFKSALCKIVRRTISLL
# Procedure, shortened: as §1
smiles,measurement,setting,value
CS,odorant receptor agonist call,[1],inactive
same,odorant receptor agonist call,[2],inactive
same,odorant receptor agonist call,[3],active
same,odorant receptor agonist call,[4],inactive
same,odorant receptor agonist call,[5],inactive
same,odorant receptor agonist call,[6],inactive
same,odorant receptor agonist call,[7],inactive
same,odorant receptor agonist call,[8],inactive
same,odorant receptor agonist call,[9],inactive
same,odorant receptor agonist call,[10],inactive

# Some of the entries so far, with bars between the fields.
smiles | measurement | setting | value
CS | odorant receptor agonist call | [1] | inactive
same | odorant receptor agonist call | [10] | inactive
